Measurements taken from PMC5758883.
These are yes or no findings as the source states them, for the method shown. Some binding calls cover weakened binding; strength is not graded here.

Protein sequences, listed by entry. Tags and fused reporters are not part of them. Chains listed by the source or under a name are the forms on record and can include a tag or linker. Residues count along the entry.
RNase E 603–850 with a C-terminal hexahistidine tag (P21513, residues 603-850): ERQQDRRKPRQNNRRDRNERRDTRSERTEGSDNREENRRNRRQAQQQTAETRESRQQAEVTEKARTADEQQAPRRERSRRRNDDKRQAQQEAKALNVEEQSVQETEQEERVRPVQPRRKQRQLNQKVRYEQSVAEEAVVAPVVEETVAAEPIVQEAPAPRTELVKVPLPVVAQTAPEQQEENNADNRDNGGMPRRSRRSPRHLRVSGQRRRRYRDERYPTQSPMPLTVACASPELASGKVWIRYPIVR
N-terminal hexahistidine-tagged AR2-enolase binding site (EBS), residues 782–850 of RNase E (P21513, residues 782-850): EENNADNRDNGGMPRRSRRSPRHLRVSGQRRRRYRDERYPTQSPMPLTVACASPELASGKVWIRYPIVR
UniProt P0A6P9: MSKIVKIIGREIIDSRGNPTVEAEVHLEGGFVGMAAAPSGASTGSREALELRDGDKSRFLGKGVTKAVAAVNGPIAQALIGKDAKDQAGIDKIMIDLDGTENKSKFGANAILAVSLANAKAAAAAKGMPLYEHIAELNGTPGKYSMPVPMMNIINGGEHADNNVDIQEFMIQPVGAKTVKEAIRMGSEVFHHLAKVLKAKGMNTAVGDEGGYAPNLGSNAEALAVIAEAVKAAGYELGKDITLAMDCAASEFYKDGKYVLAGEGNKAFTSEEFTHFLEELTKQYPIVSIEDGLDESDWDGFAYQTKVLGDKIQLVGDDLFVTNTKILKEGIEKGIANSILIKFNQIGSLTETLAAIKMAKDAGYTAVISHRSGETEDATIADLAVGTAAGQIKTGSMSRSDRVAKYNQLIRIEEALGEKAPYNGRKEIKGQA

How the values were obtained:
[1] = biological target: N-terminal hexahistidine-tagged AR2-enolase binding site (EBS), residues 782–850 of RNase E (Escherichia coli) (UniProt P21513); assay: crystal structure; co-expressed, co-purified AR2–EBS/enolase complex; 0.2 M potassium thiocyanate, 0.1 M Bis-Tris propane pH 8.5, 20% PEG 3350, 18°C; 2.0 Å; both purified
[2] = biological target: RNase E 603–850 with a C-terminal hexahistidine tag (Escherichia coli) (UniProt P21513); assay: native MS; native ESI and ion-mobility mass spectrometry of the co-purified ternary and binary complexes; both purified
[3] = biological target: RNase E 603–850 with a C-terminal hexahistidine tag (Escherichia coli) (UniProt P21513); assay: native gel or EMSA; recognition core, Hfq and MicC equimolar at 250 nM; 50 mM Tris–HCl pH 7.5, 100 mM NaCl, 50 mM KCl, 10 mM MgCl2, 5 mM DTT, 5–10 min at 4°C; 8% native polyacrylamide gel; shifted bands excised and analysed by LC-MS/MS (emPAI); both purified

Measured: binding

enolase (from UniProt P0A6P9 1-432) (enzyme)
binds: [1] | [2] | [3]
